This is one part of the list. Repeats in this data set agree poorly, so a single value says little.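 U2OS cells expressing ACE2 were combined with U2OS cells expressing full-length spike, and imaging quantified fusion as the fraction of nuclei displaying both cell types' fluorescent markers. Non-toxic compounds with a fusion z-score under -3, i.e., over three standard deviations below the plate's DMSO wells, are called inhibitory hits.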
The molecules below were run on U2OS ACE2 x SARS-CoV-2 spike co-culture (assay: cell-cell fusion (fraction fused) z-score vs plate DMSO control; higher = more fusion). Conditions: 30 µM; 5 h; toxicity class: non-toxic, passed QC.

Row | SMILES | cell-cell fusion (z-score)
1 | CC(C(=O)O)c1ccc(-c2ccccc2)c(F)c1 (configuration not stated) | inactive: 0.729
2 | CNc1ccc(C(=O)CC(O)CCC(C)C2OC(=O)CC(O)CC(=O)CC(O)CC(O)CC(O)CC(O)CC3(O)CC(O)C(C(=O)OC)C(CC(O[C@@H]4O[C@H](C)[C@@H](O)[C@H](N)[C@@H]4O)/C=C/C=C/C=C/C=C/C=C/C=C/C=C/C2C)O3)cc1 (some centres not stated) | inactive: 1.65
3 | N[C@@H](Cc1c[nH]c2ccccc12)C(=O)O [L-Tryptophan] | inactive: -2.94
4 | N[C@@H](Cc1c[nH]c2ccccc12)C(=O)O | inactive: 0.576
5 | COCCNC(=O)COc1ccc(OCCNC[C@H](O)COc2ccccc2)cc1.Cl [ZD 7114 hydrochloride] | inactive: 2.08
6 | COc1cc2c(cc1OC)C(=O)C(CC1CCN(Cc3ccccc3)CC1)C2.Cl (configuration not stated) | inactive: 1.07
7 | CC(=O)[C@H]1CCC2C3C=CC4=CC(=O)CC[C@@]4(C)C3CC[C@@]21C (some centres not stated) | inactive: 3.37
8 | CC(=O)O[C@H]1CC2CCC3C(CC[C@@]4(C)C3C[C@H]([N+]3(C)CCCCC3)[C@@H]4OC(C)=O)[C@@]2(C)C[C@@H]1[N+]1(C)CCCCC1.[Br-].[Br-] (some centres not stated) | inactive: 2.36
9 | O=C(O)[C@]1(O)C[C@@H](O)[C@@H](O)[C@H](O)C1 | inactive: 2.2
10 | Cc1ccccc1OCC(O)CO (configuration not stated) | inactive: 2.82
11 | S=C=NCc1ccccc1 | inactive: 3.05
12 | CC(=O)OCC(=O)[C@@]1(O)CCC2C3CCC4=CC(=O)C=CC4(C)C3[C@@H](O)C[C@@]21C (some centres not stated) | inactive: -0.411
13 | COc1cc2c(cc1C=O)OCO2 | inactive: 1.25
14 | COc1cc2c(cc1OC)[C@H]1C[C@@H](OC(=O)[C@@H](N)C(C)C)[C@H](CC(C)C)CN1CC2 [Valbenazine] | inactive: 1.87
15 | Cc1ncc(C[n+]2csc(CCO)c2C)c(O)n1.Cl.[Cl-] | inactive: 2.62
16 | Cl.O=C(O)C1=CCCN(CCON=C(c2ccccc2)c2ccccc2)C1 [NO-711 hydrochloride] | inactive: 1.59
17 | Cc1cc(CC(=O)O)n(C)c1C(=O)c1ccc(Cl)cc1 | inactive: 3.05
18 | CC1(C)CC23C(=O)CCC(O)C2(C)CCC13 (configuration not stated) | inactive: 1.94
19 | Cl.Cl.OCCN1CCN(CCCN2c3ccccc3C=Cc3ccccc32)CC1 [Opipramol dihydrochloride] | inactive: 0.971
20 | CC(C)NC[C@H](O)COc1cccc2ccccc12.Cl | inactive: 1.9
21 | Cl.Oc1ccc2c3c1O[C@H]1c4[nH]c5ccccc5c4C[C@@]4(O)C(C2)N(CC2CC2)CCC314 (some centres not stated) [Naltrindole hydrochloride] | inactive: 1.38
22 | CC(C)(C)NC[C@H](O)COc1nsnc1N1CCOCC1.O=C(O)/C=C\C(=O)O [Timolol Maleate] | inactive: 2.44
23 | NC[C@@H]1O[C@H](O[C@@H]2[C@@H](CO)OC(O[C@@H]3[C@@H](O)[C@H](N)C[C@H](N)[C@H]3O[C@H]3O[C@H](CO)[C@@H](O)[C@H](O)[C@H]3N)[C@@H]2O)[C@H](N)[C@@H](O)[C@@H]1O.O=S(=O)(O)O (some centres not stated) | inactive: 2.5

Row | SMILES | cell-cell fusion (z-score)
24 | O=S1(=O)OC(c2ccc(O)cc2)(c2ccc(O)cc2)c2ccccc21 | inactive: 3.32
25 | CCCCC1(COC(=O)CCC(=O)O)C(=O)N(c2ccccc2)N(c2ccccc2)C1=O | inactive: 1.75
26 | CCC(=O)c1c(O)cc(O)cc1O | inactive: -0.81
27 | CS(=O)(=O)O.N#CC1(c2ccc(NC(=O)c3cccnc3NCc3ccncc3)cc2)CCCC1 [Apatinib mesylate] | inactive: 1.18
28 | C=C1c2cccc(O)c2C(=O)C2=C(O)[C@]3(O)C(=O)C(C(N)=O)=C(O)[C@@H](N(C)C)[C@@H]3[C@@H](O)[C@H]12.Cl | inactive: 0.959
29 | CCCCOc1ccc(C(=O)CCN2CCCCC2)cc1.Cl [Dyclonine hydrochloride] | inactive: 1.6
30 | C[C@@H]1CC[C@H]2[C@@H](C)C(O)O[C@@H]3O[C@]4(C)CC[C@@H]1[C@]32OO4 (some centres not stated) | inactive: -0.956
31 | OCc1ccccc1 [Benzyl alcohol] | inactive: 4.31
32 | OCc1ccccc1 | inactive: 2.85
33 | CC[C@@]1(O)C(=O)OCc2c1cc1n(c2=O)Cc2cc3c(CN(C)C)c(O)ccc3nc2-1.Cl.O [Topotecan hydrochloride hydrate] | inactive: 4.31
34 | CCCCC(F)(F)[C@@]1(O)CC[C@H]2[C@@H](CC(=O)[C@@H]2CCCCCCC(=O)O)O1 [Lubiprostone] | inactive: 2.2
35 | CC[C@H](CO)Nc1nc(NCc2ccccc2)c2ncn(C(C)C)c2n1 [Roscovitine (Seliciclib,CYC202)] | inactive: -1.25
36 | CC[C@H](CO)Nc1nc(NCc2ccccc2)c2ncn(C(C)C)c2n1 [Roscovitine (Seliciclib, CYC202)] | inactive: 2.06
37 | O=C(NOCC(O)CO)c1cc(Br)c(F)c(F)c1Nc1ccc(I)cc1F (configuration not stated) | inactive: -0.112
38 | CC(=O)O[C@H]1CC[C@@]2(C)C(=CC[C@@H]3[C@@H]2CC[C@]2(C)C(c4cccnc4)=CC[C@@H]32)C1 [Abiraterone Acetate] | inactive: 3.11
39 | Cl.Clc1cc(I)cc(Cl)c1N=C1NCCN1 [p-Iodoclonidine hydrochloride] | inactive: 2.52
40 | C[N+](C)(C)CC(=O)O.[Cl-] [Betaine hydrochloride] | inactive: 2.06
41 | COc1cc(OC)cc(-c2cc3cnc(N)nc3nc2NC(=O)NC(C)(C)C)c1 | inactive: 1.19
42 | Cc1cccc(C#Cc2ccccc2)n1.Cl [6-Methyl-2-(phenylethynyl)pyridine hydrochloride] | inactive: 1.73
43 | Oc1ccc(O)cc1 [Hydroquinone] | inactive: 1.34
44 | CC(=O)O.CC(C)C[C@H](NC(=O)[C@@H](COC(C)(C)C)NC(=O)[C@H](Cc1ccc(O)cc1)NC(=O)[C@H](CO)NC(=O)[C@H](Cc1c[nH]c2ccccc12)NC(=O)[C@H](Cc1c[nH]cn1)NC(=O)[C@@H]1CCC(=O)N1)C(=O)N[C@@H](CCCNC(=N)N)C(=O)N1CCC[C@H]1C(=O)NNC(N)=O [Goserelin acetate] | inactive: 2.74
45 | CC(CCC(=O)O)[C@H]1CCC2C3CC[C@@H]4C[C@H](O)CC[C@]4(C)C3CC[C@@]21C (some centres not stated) | inactive: 2.9
46 | CCN(CC)C(=O)c1cccnc1 | inactive: 1.13

Fetched one by one from above, 3 records:
Row | SMILES | cell-cell fusion (z-score)
7 | CC(=O)[C@H]1CCC2C3C=CC4=CC(=O)CC[C@@]4(C)C3CC[C@@]21C (some centres not stated) | inactive: 3.37
29 | CCCCOc1ccc(C(=O)CCN2CCCCC2)cc1.Cl [Dyclonine hydrochloride] | inactive: 1.6
41 | COc1cc(OC)cc(-c2cc3cnc(N)nc3nc2NC(=O)NC(C)(C)C)c1 | inactive: 1.19

(cont.)

Row | SMILES | cell-cell fusion (z-score)
47 | O=C1OC(=O)C2C3CCC(O3)C12 (configuration not stated) | inactive: 4.06
48 | O=C1OC(=O)C2C3CCC(O3)C12 (configuration not stated) [Norcantharidin] | inactive: 2.35
49 | CC[C@@H]1C(=O)N(C)c2cnc(Nc3ccc(C(=O)N[C@H]4CC[C@H](N5CCN(CC6CC6)CC5)CC4)cc3OC)nc2N1C(C)C [BI6727 (Volasertib)] | inactive: 1.65
50 | Cc1cc(C2CCCCC2)n(O)c(=O)c1.NCCO [Ciclopirox ethanolamine] | inactive: 1.96
51 | N[C@H](C(=O)O)[C@H](O)C(=O)O (racemic) [DL-threo-beta-hydroxyaspartic acid] | inactive: 2.33
52 | CC(=O)N[C@@H](Cc1ccc(O)cc1)C(=O)O [N-Acetyl-L-tyrosine] | inactive: 2.76
53 | CCC1OC(=O)[C@H](C)C(=O)[C@H](C)[C@@H](OC2O[C@H](C)C[C@H](N(C)C)[C@H]2O)[C@](C)(OC)C[C@@H](C)C(=O)[C@@H](C)[C@@H]2N(CCCCn3cnc(-c4cccnc4)c3)C(=O)O[C@]12C (some centres not stated) | inactive: 2.89
54 | N=C(N)N1CCc2ccccc2C1.O=S(=O)(O)O | inactive: 3.47
55 | COc1c2c(cc3c1OCO3)CC[N+](C)=C2.[Cl-] | inactive: 1.53
56 | Cn1c(=O)c2c(ncn2CC2OCCO2)n(C)c1=O | inactive: 1.54
57 | COc1cc2c(cc1OC)C1Cc3ccc(OC)c(OC)c3CN1CC2 (configuration not stated) | inactive: 2.51
58 | CC(=O)O[C@H]1C[C@@H]2CC[C@@H]3[C@H](CC[C@@]4(C)[C@H]3C[C@H]([N+]3(C)CCCCC3)[C@@H]4OC(C)=O)[C@@]2(C)C[C@@H]1[N+]1(C)CCCCC1.[Br-].[Br-] [Pancuronium bromide] | inactive: 2.09
59 | NCCCP(=O)(O)O [3-Aminopropylphosphonic acid] | inactive: 1.81
60 | S=C([S-])N1CCCC1.[NH4+] [Ammonium pyrrolidinedithiocarbamate] | active: -4.88
61 | C[C@@H](NCCc1ccc(O)cc1)[C@@H](O)c1ccc(O)cc1.Cl [Ritodrine hydrochloride] | inactive: -0.459
62 | CCOC(=O)[C@H](CCc1ccccc1)N[C@@H](C)C(=O)N1CCC[C@H]1C(=O)O.O=C(O)/C=C\C(=O)O | inactive: 2.64
63 | C[C@H](NC(=O)Cc1cc(F)cc(F)c1)C(=O)N[C@H](C(=O)OC(C)(C)C)c1ccccc1 | inactive: 3.26
64 | COc1ccc2cc(CCC(C)=O)ccc2c1 [Nabumetone] | inactive: 1.48
65 | CC(=O)[N-]S(=O)(=O)c1ccc(N)cc1.[Na+] [Sulfacetamide sodium] | inactive: 2.69
66 | CCC[C@@H]1C[C@@H](C(=O)N[C@@H](C2O[C@H](SC)[C@H](O)[C@@H](O)[C@H]2O)[C@H](C)Cl)N(C)C1.Cl (some centres not stated) | inactive: 0.0342
67 | CC[C@H]1OC(=O)[C@H](C)[C@@H](O[C@H]2C[C@@](C)(OC)[C@@H](O)[C@H](C)O2)[C@H](C)[C@@H](O[C@@H]2O[C@H](C)C[C@H](N(C)C)[C@H]2O)[C@](C)(OC)C[C@@H](C)C(=O)[C@H](C)[C@@H](O)[C@]1(C)O [Clarithromycin] | inactive: 3.48

— the supplement of paper PMC8104966
